# Test results as given in PubChem BioAssay (Tox21).
# Chains of the proteins cited; added tags and fusions are not shown. Lines headed by an entry give the natural chain unless they say otherwise; changes in a name come on top.
# UniProt P10635, whole entry, looked up: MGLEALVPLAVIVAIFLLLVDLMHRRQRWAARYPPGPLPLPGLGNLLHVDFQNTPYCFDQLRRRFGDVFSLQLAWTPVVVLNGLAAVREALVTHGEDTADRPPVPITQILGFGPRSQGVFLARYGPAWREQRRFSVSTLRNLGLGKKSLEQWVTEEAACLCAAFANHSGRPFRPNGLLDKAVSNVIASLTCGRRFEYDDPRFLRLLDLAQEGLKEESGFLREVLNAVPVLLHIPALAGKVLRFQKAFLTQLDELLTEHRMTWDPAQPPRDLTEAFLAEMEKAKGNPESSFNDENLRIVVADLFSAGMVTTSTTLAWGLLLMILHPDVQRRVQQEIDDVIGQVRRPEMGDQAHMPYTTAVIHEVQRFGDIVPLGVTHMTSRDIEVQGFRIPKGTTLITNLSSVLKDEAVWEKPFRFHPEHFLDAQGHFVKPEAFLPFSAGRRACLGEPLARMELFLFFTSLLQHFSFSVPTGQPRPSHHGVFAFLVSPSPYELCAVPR
# UniProt Q9R1A7: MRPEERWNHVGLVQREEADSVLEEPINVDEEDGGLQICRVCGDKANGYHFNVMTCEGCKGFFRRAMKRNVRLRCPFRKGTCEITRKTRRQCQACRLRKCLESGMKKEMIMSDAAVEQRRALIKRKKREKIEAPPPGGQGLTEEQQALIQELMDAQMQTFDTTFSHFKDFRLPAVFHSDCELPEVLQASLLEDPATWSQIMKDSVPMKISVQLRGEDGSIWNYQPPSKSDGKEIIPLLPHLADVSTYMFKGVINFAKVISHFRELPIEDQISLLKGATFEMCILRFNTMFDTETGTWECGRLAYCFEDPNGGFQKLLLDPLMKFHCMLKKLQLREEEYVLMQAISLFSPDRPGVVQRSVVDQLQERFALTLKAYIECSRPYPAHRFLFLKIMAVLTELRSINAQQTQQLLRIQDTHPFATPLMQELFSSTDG
# UniProt P05177, whole entry, looked up: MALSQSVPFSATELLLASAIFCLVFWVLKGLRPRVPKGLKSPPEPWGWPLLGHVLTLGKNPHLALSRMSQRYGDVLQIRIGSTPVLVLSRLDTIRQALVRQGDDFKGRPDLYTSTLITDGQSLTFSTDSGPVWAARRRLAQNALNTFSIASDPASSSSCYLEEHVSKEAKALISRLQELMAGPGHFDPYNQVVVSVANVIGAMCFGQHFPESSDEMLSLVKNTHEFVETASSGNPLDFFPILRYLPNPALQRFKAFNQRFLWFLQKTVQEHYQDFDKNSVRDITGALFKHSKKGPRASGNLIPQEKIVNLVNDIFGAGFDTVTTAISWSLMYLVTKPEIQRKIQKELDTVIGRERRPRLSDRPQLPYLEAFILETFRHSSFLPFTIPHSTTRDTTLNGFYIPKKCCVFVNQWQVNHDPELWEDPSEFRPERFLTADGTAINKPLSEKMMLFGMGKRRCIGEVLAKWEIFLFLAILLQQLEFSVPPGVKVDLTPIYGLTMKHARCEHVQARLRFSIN
# UniProt P33261, whole entry, looked up: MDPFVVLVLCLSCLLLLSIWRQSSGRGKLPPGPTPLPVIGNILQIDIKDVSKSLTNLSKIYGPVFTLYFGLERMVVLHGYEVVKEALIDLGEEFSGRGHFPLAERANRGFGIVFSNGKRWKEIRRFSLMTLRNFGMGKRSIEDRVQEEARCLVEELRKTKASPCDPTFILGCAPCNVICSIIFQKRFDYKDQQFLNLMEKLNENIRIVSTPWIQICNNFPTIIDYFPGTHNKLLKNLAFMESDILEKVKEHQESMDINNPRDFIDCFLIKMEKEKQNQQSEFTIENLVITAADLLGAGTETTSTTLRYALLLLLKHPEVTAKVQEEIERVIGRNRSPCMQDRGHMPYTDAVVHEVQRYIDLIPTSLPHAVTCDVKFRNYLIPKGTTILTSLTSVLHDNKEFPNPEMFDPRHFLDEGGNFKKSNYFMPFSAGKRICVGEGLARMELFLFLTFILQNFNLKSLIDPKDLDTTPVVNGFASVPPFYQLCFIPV
# UniProt P11712, whole entry, looked up: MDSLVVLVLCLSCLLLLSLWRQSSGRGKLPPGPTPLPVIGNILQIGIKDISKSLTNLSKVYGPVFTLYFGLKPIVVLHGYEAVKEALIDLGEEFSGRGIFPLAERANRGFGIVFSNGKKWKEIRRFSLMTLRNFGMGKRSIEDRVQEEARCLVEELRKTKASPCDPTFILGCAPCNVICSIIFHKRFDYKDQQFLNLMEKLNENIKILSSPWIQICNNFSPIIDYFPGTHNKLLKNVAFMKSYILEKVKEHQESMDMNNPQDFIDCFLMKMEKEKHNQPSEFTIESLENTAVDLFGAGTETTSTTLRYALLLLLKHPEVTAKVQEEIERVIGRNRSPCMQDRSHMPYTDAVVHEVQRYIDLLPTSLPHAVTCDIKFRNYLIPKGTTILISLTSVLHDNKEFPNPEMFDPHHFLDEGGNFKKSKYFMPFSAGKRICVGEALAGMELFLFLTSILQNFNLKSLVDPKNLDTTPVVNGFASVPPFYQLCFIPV
# UniProt Q12809: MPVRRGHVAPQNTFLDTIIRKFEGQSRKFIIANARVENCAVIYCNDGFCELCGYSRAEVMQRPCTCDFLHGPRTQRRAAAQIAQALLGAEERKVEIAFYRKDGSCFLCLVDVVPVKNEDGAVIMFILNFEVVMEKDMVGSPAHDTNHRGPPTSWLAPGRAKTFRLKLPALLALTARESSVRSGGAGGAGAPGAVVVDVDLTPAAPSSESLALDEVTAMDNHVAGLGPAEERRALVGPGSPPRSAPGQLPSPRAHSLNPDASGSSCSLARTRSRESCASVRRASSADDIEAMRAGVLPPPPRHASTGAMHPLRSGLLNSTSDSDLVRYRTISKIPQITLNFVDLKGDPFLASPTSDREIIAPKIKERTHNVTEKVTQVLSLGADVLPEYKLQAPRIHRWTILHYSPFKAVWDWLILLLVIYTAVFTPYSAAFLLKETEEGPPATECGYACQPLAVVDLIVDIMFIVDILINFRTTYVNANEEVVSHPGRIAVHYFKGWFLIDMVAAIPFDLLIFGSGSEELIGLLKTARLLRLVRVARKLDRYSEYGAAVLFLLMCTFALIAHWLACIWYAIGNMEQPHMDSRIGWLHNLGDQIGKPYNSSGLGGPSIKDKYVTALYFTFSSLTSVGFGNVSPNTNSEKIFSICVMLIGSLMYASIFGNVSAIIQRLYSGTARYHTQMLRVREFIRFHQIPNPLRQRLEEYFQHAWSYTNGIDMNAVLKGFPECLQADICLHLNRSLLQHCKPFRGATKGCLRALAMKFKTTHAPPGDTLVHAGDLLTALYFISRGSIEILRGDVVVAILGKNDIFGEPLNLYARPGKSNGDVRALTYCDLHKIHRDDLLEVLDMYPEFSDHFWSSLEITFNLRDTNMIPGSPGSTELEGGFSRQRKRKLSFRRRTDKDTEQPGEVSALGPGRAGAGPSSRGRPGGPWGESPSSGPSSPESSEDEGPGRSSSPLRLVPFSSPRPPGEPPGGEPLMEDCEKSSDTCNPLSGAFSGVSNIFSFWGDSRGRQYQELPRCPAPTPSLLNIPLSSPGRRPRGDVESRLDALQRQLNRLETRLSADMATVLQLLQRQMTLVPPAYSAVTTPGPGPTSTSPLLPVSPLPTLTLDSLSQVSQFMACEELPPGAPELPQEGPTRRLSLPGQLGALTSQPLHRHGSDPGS
# UniProt P08684, whole entry, looked up: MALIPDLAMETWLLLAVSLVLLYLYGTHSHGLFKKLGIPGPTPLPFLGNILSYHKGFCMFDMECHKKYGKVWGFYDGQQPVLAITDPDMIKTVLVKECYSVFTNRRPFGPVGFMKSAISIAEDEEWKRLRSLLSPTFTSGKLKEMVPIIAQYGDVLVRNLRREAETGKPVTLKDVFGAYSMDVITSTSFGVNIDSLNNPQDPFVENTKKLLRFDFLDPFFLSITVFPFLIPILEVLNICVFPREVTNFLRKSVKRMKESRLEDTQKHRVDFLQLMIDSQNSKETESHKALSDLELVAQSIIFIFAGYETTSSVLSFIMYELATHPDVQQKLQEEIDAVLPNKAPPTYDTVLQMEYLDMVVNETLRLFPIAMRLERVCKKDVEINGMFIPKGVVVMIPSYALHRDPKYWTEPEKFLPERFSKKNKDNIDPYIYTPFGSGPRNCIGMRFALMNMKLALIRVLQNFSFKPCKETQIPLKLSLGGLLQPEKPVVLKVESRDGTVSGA
# The shares of active, inactive and inconclusive entries below differ from those in the screen. For some assays here: Where the call is inconclusive, the potency comes from a doubtful curve fit. Active and inactive are the calls of the source. The call rests on the fitted dose curve; in most records, active means well fitted curve in the direction sought with a large enough effect in the repeat runs; inconclusive means weak or mixed curves; inactive means no such curve, though single readings can be large; an effect the other way counts as inactive or inconclusive.
# Assays:
# [1] = target: Cytochrome P450 2D6 (Homo sapiens) (UniProt P10635); assay: Cytochrome P450 Family 2 Subfamily D Member 6 (CYP2D6) small molecule antagonists: luciferase reporter qHTS assay (AID 1671196); further: nearly all actives have a fitted effect of over 50% in size; further: potency means the concentration at half of the fitted maximal effect
# Summary of the method: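 P450-Glo format: CYP2D6 converts a proluciferin substrate to luciferin in an NADPH-driven reaction lasting 1 h at room temperature. Light output, proportional to CYP2D6 activity, reflects interference by test chemicals.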
# [2] = target: Nuclear receptor subfamily 1 group I member 2 (Rattus norvegicus) (UniProt Q9R1A7); assay: Rat pregnane X receptor (rPXR) activation by small molecules, qHTS assay (AID 1346983); conditions: rPXR luciferase reporter cells, One-Glo luminescence, 24 h; max activation: stronger effect = higher value; further: nearly all actives have a fitted effect of over 20% in size; further: potency means the concentration at half of the fitted maximal effect; on max activation: on the % scale 0 is the no-effect control and ±100 the full control effect
# Summary of the method: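 Cell-based rPXR luciferase reporter assay, 2,000 cells per well, rested 5hr at 37 C before compound addition in DMSO, then 24 hr at 37 C. One-Glo reagent was added and luminescence read after 30 min at room temperature.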
# [3] = target: Cytochrome P450 1A2 (Homo sapiens) (UniProt P05177); assay: Cytochrome P450 Family 1 Subfamily A Member 2 (CYP1A2) small molecule antagonists: luciferase reporter qHTS assay (AID 1671199); further: nearly all actives have a fitted effect of over 50% in size; further: potency means the concentration at half of the fitted maximal effect
# Summary of the method: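 Inhibition of CYP1A2 conversion of proluciferin to luciferin, detected by luminescence. Reaction run 1 h at room temperature with NADPH regeneration after brief compound preincubation.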
# [4] = target: Nuclear receptor subfamily 1 group I member 2 (Homo sapiens) (UniProt O75469); assay: Human pregnane X receptor (PXR) activation by small molecules, qHTS assay (AID 1346985); further: nearly all actives have a fitted effect of over 40% in size; further: potency means the concentration at half of the fitted maximal effect; on activation: on the % scale 0 is the no-effect control and ±100 the full control effect
# Summary of the method: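 DPX-2 cells (HepG2 co-transfected with a PXR response element and a CYP3A4-promoter luciferase construct) were seeded at 2,000 per well, rested 5 hr at 37C, then exposed to DMSO-dissolved compounds for 24 hr. Activation was read as luciferase luminescence.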
# [5] = target: Cytochrome P450 2C19 (Homo sapiens) (UniProt P33261); assay: Cytochrome P450 Family 2 Subfamily C Member 19 (CYP2C19) small molecule antagonists: luciferase reporter qHTS assay (AID 1671197); further: nearly all actives have a fitted effect of over 65% in size; further: potency means the concentration at half of the fitted maximal effect
# Summary of the method: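 Relative luminescence units recorded 20 min after the detection reagent stopped a 1 h, 37C CYP2C19 reaction on proluciferin substrate, which was started by NADPH regeneration following 10 min room-temperature compound preincubation; ketoconazole positive control.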
# [6] = target: Cytochrome P450 2C9 (Homo sapiens) (UniProt P11712); assay: Cytochrome P450 Family 2 Subfamily C Member 9 (CYP2C9) small molecule antagonists: luciferase reporter qHTS assay (AID 1671198); further: potency means the concentration at half of the fitted maximal effect; nearly all actives have a fitted effect of over 50% in size
# Summary of the method: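 CYP2C9 activity was measured with a P450-Glo proluciferin substrate. Enzyme–substrate mix was held with compound for 10 min at room temperature, then NADPH regeneration solution was added for 1 h at 37C. Luciferin product was read as luminescence.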
# [7] = target: Nuclear receptor subfamily 1 group I member 2 (Homo sapiens) (UniProt O75469); assay: CYP3A4 induction through human pregnane X receptor (PXR) by small molecules, qHTS assay (AID 1346984); further: nearly all actives have a fitted effect of over 40% in size; further: potency means the concentration at half of the fitted maximal effect; on activation: on the % scale 0 is the no-effect control and ±100 the full control effect
# Summary of the method: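 Steps: seed DPX-2 cells, 5 hr at 37C; pin-transfer compounds; 24 hr at 37C; add Luciferin-IPA (3uM final), 3 hr at 37C; add One-Glo, 30 min RT; read luminescence.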
# [8] = target: Voltage-gated inwardly rectifying potassium channel KCNH2 (Homo sapiens) (UniProt Q12809); assay: Human Ether-a-go-go-Related Gene (hERG) channel small molecule antagonists: fluorescence cell-based qHTS assay (AID 1671200); further: potency means the concentration at half of the fitted maximal effect; nearly all actives have a fitted effect of over 50% in size
# Summary of the method: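 Fluorescence at 540 nm emission (480 nm excitation) was recorded kinetically for 2 min at 1-second intervals once the thallium-containing stimulus reached cells previously loaded with FluxOR II dye.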
# [9] = target: Cytochrome P450 3A4 (Homo sapiens) (UniProt P08684); assay: Cytochrome P450 Family 3 Subfamily A Member 4 (CYP3A4) small molecule antagonists: luciferase reporter qHTS assay (AID 1671201)
# Summary of the method: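 qHTS, 1536-well. CYP3A4 + proluciferin substrate, cpd 10 min RT → NADPH regen 1 h RT → detection reagent 20 min → luminescence (RLU). Ketoconazole positive control.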
compound,measurement,setting,value
CN1CCC[C@@H]1c1cccnc1,Potency,[1],active: 38.9 µM
Nc1nccs1,max activation,[2],inactive: -2.81%
same,Potency,[3],inactive
CCCCNC(=O)NS(=O)(=O)c1ccc(N)cc1,Potency,[4],inactive
Cn1ccc2cc3c(cc21)CCN3C(=O)Nc1cccnc1,Potency,[4],active: 12.6 µM
same,Potency,[5],"inconclusive: 1.34 µM [inhibitor, partial curve, poor fit]"
same,Potency,[6],"inconclusive: 7.56 µM [inhibitor, single point]"
O=C(O)[C@H](O)c1ccccc1,max activation,[2],inactive: -3.01%
same,Potency,[1],inactive
COc1ccc2cc(CCC(C)=O)ccc2c1,Potency,[2],active: 8.91 µM
same,Potency,[4],"inconclusive: 10 µM [activator, partial curve, poor fit]"
same,Potency,[6],"inconclusive: 27.5 µM [inhibitor, partial curve, poor fit]"
CC(C)(C)NCC(O)COc1ccc(NC(=O)NC2CCCCC2)cc1 (stereo unspecified),Potency,[4],"inconclusive: 22.4 µM [activator, partial curve]"
same,Potency,[3],inactive
Clc1cccc(C(c2ccc3nc[nH]c3c2)n2ccnc2)c1 (stereo unspecified),Potency,[2],"inconclusive: 12.6 µM [activator, full curve, poor fit]"
same,Potency,[4],"inconclusive: 14.1 µM [activator, partial curve, poor fit]"
same,Potency,[1],"inconclusive: 30.9 µM [inhibitor, partial curve]"
same,Potency,[6],active: 8.71 µM
OCCOCCOCCO,Potency,[7],inactive
same,Potency,[3],"inconclusive: 71 µM [inhibitor, partial curve]"
Cc1ccc(S(=O)(=O)NCl)cc1,max activation,[2],inactive: 4.18%
same,Potency,[1],inactive
COc1ccnc(CS(=O)c2nc3ccc(OC(F)F)cc3[nH]2)c1OC (stereo unspecified),Potency,[7],"inconclusive: 4.47 µM [activator, full curve, poor fit]"
same,Potency,[4],"inconclusive: 17.8 µM [activator, partial curve]"
same,Potency,[3],active: 17.4 µM
same,Potency,[8],"inconclusive: 21.3 µM [inhibitor, partial curve, poor fit]"
CN1CCC[C@@H]1Cc1c[nH]c2ccc(CCS(=O)(=O)c3ccccc3)cc12,max activation,[2],inactive: 0.279%
same,Potency,[6],active: 17.4 µM
same,Potency,[8],"inconclusive: 23.9 µM [inhibitor, partial curve]"
Cc1ccc(N)cc1[N+](=O)[O-],Potency,[1],"inconclusive: 3.58 µM [inhibitor, full curve]"
CC[C@H](C)C(=O)O[C@H]1C[C@H](O)C=C2C=C[C@H](C)[C@H](CC[C@@H](O)C[C@@H](O)CC(=O)O)[C@H]21,max activation,[2],inactive: -0.271%
same,Potency,[6],"inconclusive: 71 µM [inhibitor, partial curve]"
same,Potency,[3],inactive
OB(O)O,Potency,[4],inactive
same,Potency,[5],"inconclusive: 85.7 µM [inhibitor, single point]"
same,Potency,[6],"inconclusive: 79.6 µM [inhibitor, partial curve]"
same,Potency,[3],"inconclusive: 76.3 µM [inhibitor, partial curve, poor fit] and inactive"
same,Potency,[9],inactive
OCCN1C[C@H](O)[C@@H](O)[C@H](O)[C@H]1CO,Potency,[4],inactive
same,Potency,[9],inactive
CC(=O)N(O)CCCCCNC(=O)CCC(=O)N(O)CCCCCNC(=O)CCC(=O)N(O)CCCCCN,Potency,[1],"inconclusive: 38.9 µM [inhibitor, partial curve, poor fit]"
O=c1[nH]c(=O)n([C@H]2C[C@H](O)[C@@H](CO)O2)cc1C(F)(F)F,Potency,[7],"inconclusive: 1 µM [activator, full curve, poor fit]"
same,Potency,[5],inactive
c1ccc2c(c1)ccc1c3ccccc3ccc21,Potency,[1],inactive
Cc1cc(OI)c(C(C)C)cc1-c1cc(C(C)C)c(OI)cc1C,Potency,[7],"inconclusive: 25.1 µM [activator, partial curve, poor fit]"
same,Potency,[3],"inconclusive: 24.5 µM [inhibitor, partial curve, poor fit]"
COc1ccc(NC(C)=O)cc1,Potency,[1],active: 41 µM
OCC1CC2CC1C1CCC(CO)C21 (stereo unspecified),Potency,[1],inactive
same,Potency,[5],"inconclusive: 89.4 µM [inhibitor, single point]"
same,Potency,[6],"inconclusive: 71 µM [inhibitor, partial curve, poor fit]"
same,Potency,[3],"inconclusive: 44.8 µM [inhibitor, partial curve]"
CC(=O)OCC(=O)[C@@]12N=C(C)O[C@@H]1C[C@H]1[C@@H]3CCC4=CC(=O)C=C[C@]4(C)[C@H]3[C@@H](O)C[C@@]12C,Potency,[1],"inconclusive: 71 µM [inhibitor, partial curve, poor fit]"
O=C1CCCc2ccccc21,Potency,[1],"inconclusive: 64 µM [inhibitor, partial curve]"
CC(=O)c1cccc([N+](=O)[O-])c1,Potency,[1],"inconclusive: 35.5 µM [inhibitor, full curve]"
COC=O,Potency,[1],"inconclusive: 0.147 µM [inhibitor, single point]"
CC(=O)O[C@H]1C[C@@H]2CC[C@@H]3[C@H](CC[C@@]4(C)[C@H]3C[C@H]([N+]3(C)CCCCC3)[C@@H]4OC(C)=O)[C@@]2(C)C[C@@H]1N1CCCCC1,Potency,[1],"inconclusive: 27.5 µM [inhibitor, partial curve, poor fit]"

# Part of the list above in another layout:
compound	measurement	setting	value
CC[C@H](C)C(=O)O[C@H]1C[C@H](O)C=C2C=C[C@H](C)[C@H](CC[C@@H](O)C[C@@H](O)CC(=O)O)[C@H]21	max activation	[2]	inactive: -0.271%
Cc1cc(OI)c(C(C)C)cc1-c1cc(C(C)C)c(OI)cc1C	Potency	[3]	inconclusive: 24.5 µM [inhibitor, partial curve, poor fit]
